We go through one substance from publication PMC2834746.

The target of this experiment is GAL4:Bma-EcR(LBD) (DEF domains, residues 259-565) (Brugia malayi).

No constants are given. Whether binding was seen depends on the method and setting. Binding can be weak; no strength is given.

As for “VP16:Bma-RXR(LBD) (DEF domains, residues 191 to 464) (from UniProt A9XG30) (domain or fragment)”, the binding entry is recorded as “binds”.
